Data: PubChem BioAssay AID330 (DTP/NCI, 2004)
The list is a part of this screen's results and no random one: it gathers tests that were run many times, whatever their T/C, doses with no T/C, and many T/C values between a quarter and a half above the control. Other doses and runs of a compound stand elsewhere. T/C is the treated group as % of the vehicle group. Some doses have a count of surviving animals in place of a T/C: the source files T/C as zero there, which appears to mark a toxic dose or a test without result, not a measured value. Some survivor counts are full or nearly so, which does not show that the dose was tolerated: survival well below the control is almost never listed, so the zero probably covers shortened survival too. Survivors were counted at the toxicity check, usually on the fifth day, unless a day is given; later deaths do not show. Schedule codes are those of the source, read here as Q, the interval in days (D) or hours (H), X, the number of doses. Some structures stand for samples that the source files as different forms (salt, stereo form or complex); doses refer to the form tested. Some entries hold several experiments; the results are listed from low to high. Where survival is the endpoint, this PubChem deposit counts one and a half times the control or more as active, and values a quarter to a half above the control carry no call in these data; other NCI protocols may use other cut-offs. Some T/C values are followed by the survivors on the day toxicity was checked, most often the fifth; where none is given, no animal had died by that day. Signs of the kind (2×) give the number of equal values in this list.

Test system: P388 leukemia ip, CD2F1 mice, survival T/C
Assay: NCI In Vivo Anticancer Drug Screen. Data for tumor model P388 Leukemia (intraperitoneal) in CD2F1 (CDF1) mice
Details: T/C endpoint: median survival time, higher T/C = longer survival
[1] = dose: 20.0 mg/kg/injection, schedule: Q01DX009 (ip), vehicle: water
[2] = dose: 25.0 mg/kg/injection, schedule: Q01DX009 (ip), vehicle: water
[3] = dose: 200.0 mg/kg/injection, schedule: Q01DX005 (ip), vehicle: Klucel (hydroxypropylcellulose) (HPC)
[4] = dose: 240.0 mg/kg/injection, schedule: Q01DX005 (ip), vehicle: saline with Tween-80
[5] = dose: 400.0 mg/kg/injection, schedule: Q04DX003 (ip), vehicle: saline with Tween-80
[6] = dose: 50.0 mg/kg/injection, schedule: Q01DX009 (ip), vehicle: Klucel (hydroxypropylcellulose) (HPC)

CC[n+]1c(-c2ccccc2)c2cc(N)ccc2c2ccc(N)cc21
T/C (dose: 0.78 mg/kg/injection, schedule: Q01DX009 (ip), vehicle: saline): 136 % of control
T/C (dose: 1.25 mg/kg/injection, schedule: Q01DX009 (ip), vehicle: water): 128 % of control
T/C (dose: 1.56 mg/kg/injection, schedule: Q01DX009 (ip), vehicle: water): 128, 130 [5 of 6 alive], 134, 136, 140 % of control
T/C (dose: 2.5 mg/kg/injection, schedule: Q01DX009 (ip), vehicle: water): 137, 140, 142, 144, 145, 148, 149, 158 % of control
T/C (dose: 3.12 mg/kg/injection, schedule: Q01DX005 (ip), vehicle: water): 134 and 142 % of control
T/C (dose: 3.12 mg/kg/injection, schedule: Q01DX009 (ip), vehicle: water): 139 and 145 % of control
T/C (dose: 3.13 mg/kg/injection, schedule: Q01DX009 (ip), vehicle: water): 143 and 146 % of control
T/C (dose: 5.0 mg/kg/injection, schedule: Q01DX009 (ip), vehicle: water): 143, 155, 156, 158 (2×), 169, 175, 179 % of control
T/C (dose: 6.25 mg/kg/injection, schedule: Q01DX005 (ip), vehicle: water): 135 [5 of 6 alive] and 148 % of control
T/C (dose: 6.25 mg/kg/injection, schedule: Q01DX009 (ip), vehicle: water): 136, 142, 150, 151, 160 % of control
T/C (dose: 6.25 mg/kg/injection, schedule: Q04DX003 (ip), vehicle: saline): 137 % of control
T/C (dose: 6.25 mg/kg/injection, schedule: Q04DX003 (ip), vehicle: water): 132 % of control
T/C (dose: 8.0 mg/kg/injection, schedule: Q04DX003 (ip), vehicle: saline sonified): 127 % of control
T/C (dose: 10.0 mg/kg/injection, schedule: Q01DX009 (ip), vehicle: water): 98, 102, 128, 169, 174, 189, 200, 201 % of control
T/C (dose: 12.0 mg/kg/injection, schedule: Q04DX003 (ip), vehicle: saline sonified): 136 % of control
T/C (dose: 12.5 mg/kg/injection, schedule: Q01DX005 (ip), vehicle: water): 135 and 144 % of control
T/C (dose: 12.5 mg/kg/injection, schedule: Q01DX009 (ip), vehicle: water): 127 [5 of 6 alive], 133, 142, 163, 173 % of control
T/C (dose: 12.5 mg/kg/injection, schedule: Q04DX003 (ip), vehicle: saline): 146 % of control
T/C (dose: 12.5 mg/kg/injection, schedule: Q04DX003 (ip), vehicle: water): 145 % of control
T/C [1]: 91 (2×), 99, 180 % of control
survivor count [1]: 6 of 6
survivor count (dose: 25.0 mg/kg/injection, schedule: Q01DX005 (ip), vehicle: water): 6 of 6
T/C [2]: 170 % of control
survivor count [2]: 4 of 6 and 6 of 6
T/C (dose: 25.0 mg/kg/injection, schedule: Q04DX003 (ip), vehicle: water): 141 % of control
survivor count (dose: 40.0 mg/kg/injection, schedule: Q01DX009 (ip), vehicle: water): 3 of 6, 4 of 6, 5 of 6, 6 of 6
survivor count (dose: 50.0 mg/kg/injection, schedule: Q01DX005 (ip), vehicle: water): 2 of 6 and 4 of 6

COC(=O)CC1(C(=O)OC)c2sc(-c3ccccc3)c(-c3ccccc3)c2N2CCCC21 (centres undefined)
survivor count (dose: 90.0 mg/kg/injection, schedule: Q01DX009 (ip), vehicle: Klucel (hydroxypropylcellulose) (HPC)): 5 of 5

CC/C(C)=N\NC(=S)SC
survivor count (dose: 12.5 mg/kg/injection, schedule: Q01DX009 (ip), vehicle: saline with Tween-80): 2 of 6
survivor count (dose: 25.0 mg/kg/injection, schedule: Q01DX009 (ip), vehicle: saline with Tween-80): 2 of 6
survivor count (dose: 50.0 mg/kg/injection, schedule: Q01DX009 (ip), vehicle: saline with Tween-80): 0 of 6
survivor count (dose: 100.0 mg/kg/injection, schedule: Q01DX009 (ip), vehicle: saline with Tween-80): 0 of 6
survivor count (dose: 200.0 mg/kg/injection, schedule: Q01DX009 (ip), vehicle: saline with Tween-80): 0 of 6

CCCCCCCCCCCCCCC1(C(=O)OC)CO1 (centres undefined)
survivor count (dose: 25.0 mg/kg/injection, schedule: Q01DX005 (ip), vehicle: Klucel (hydroxypropylcellulose) (HPC)): 1 of 6
survivor count (dose: 100.0 mg/kg/injection, schedule: Q01DX005 (ip), vehicle: Klucel (hydroxypropylcellulose) (HPC)): 0 of 6
survivor count [3]: 0 of 6

C[C@]12CC[C@H](OC(=O)Cc3ccc(N(CCCl)CCCl)cc3)CC1CC[C@@H]1C2CC[C@]2(C)NC(=O)CCC12 (some centres undefined)
survivor count (dose: 200.0 mg/kg/injection, schedule: Q01DX001 (ip), vehicle: saline with Tween-80): 1 of 6 and 2 of 6
survivor count (dose: 400.0 mg/kg/injection, schedule: Q01DX001 (ip), vehicle: saline with Tween-80): 0 of 6

COc1ccc(C2C(C(=O)OCc3ccccc3)=C(C)NC(C)=C2C(=O)OCc2ccccc2)cc1
survivor count (dose: 25.0 mg/kg/injection, schedule: Q01DX009 (ip), vehicle: distilled water + Tween-80): 6 of 6
survivor count (dose: 50.0 mg/kg/injection, schedule: Q01DX009 (ip), vehicle: distilled water + Tween-80): 6 of 6

CN(C)c1ccc(C2c3c(oc4ccccc4c3=O)Oc3oc4ccccc4c(=O)c32)cc1
survivor count (dose: 60.0 mg/kg/injection, schedule: Q01DX005 (ip), vehicle: saline with Tween-80): 6 of 6
survivor count (dose: 120.0 mg/kg/injection, schedule: Q01DX005 (ip), vehicle: saline with Tween-80): 6 of 6
survivor count [4]: 6 of 6

Cc1cccc(C(=O)OCCBr)c1
T/C (dose: 75.0 mg/kg/injection, schedule: Q01DX009 (ip), vehicle: saline sonified): 127 % of control

CC1=C(/C=C/C(C)=C/C=C/C(C)=C/C(=O)O)C(C)(C)CCC1
survivor count [5]: 1 of 6

COC(=O)c1[c]([Sn]([CH3])([CH3])[CH3])n[n]([Pb]([CH3])([CH3])[CH3])c1C(=O)OC
survivor count (dose: 100.0 mg/kg/injection, schedule: Q04DX003 (ip), vehicle: saline with Tween-80): 0 of 6
survivor count (dose: 200.0 mg/kg/injection, schedule: Q04DX003 (ip), vehicle: saline with Tween-80): 0 of 6
survivor count [5]: 0 of 6

CCCNC1(N(C)C)N=C(N(C)C)N=C(N(C)C)O1 (centres undefined)
survivor count (dose: 200.0 mg/kg/injection, schedule: Q01DX005 (ip), vehicle: saline): 0 of 6

C=CCSc1nc2ccc(NC(C)=O)cc2s1
survivor count [6]: 6 of 6
survivor count (dose: 100.0 mg/kg/injection, schedule: Q01DX009 (ip), vehicle: Klucel (hydroxypropylcellulose) (HPC)): 6 of 6
survivor count (dose: 200.0 mg/kg/injection, schedule: Q01DX009 (ip), vehicle: Klucel (hydroxypropylcellulose) (HPC)): 6 of 6

C1CNC(SCC2CC3CC2C2OC32)=N1 (centres undefined)
survivor count [3]: 1 of 6

C=C1CC2(C)CCC(OC(=O)C3(C)OC3C)C(C)(OC(C)=O)C2CC1=C(C)C (centres undefined)
survivor count (dose: 600.0 mg/kg/injection, schedule: Q01DX001 (ip), vehicle: Klucel (hydroxypropylcellulose) (HPC)): 2 of 6

COc1ccc2c(c1)OC(C)(C)[C@H](c1ccc(O)cc1)[C@@H]2c1ccccc1
survivor count [4]: 6 of 6

C[N+](C)(C)CCCOC1=Nc2ccccc2O/C1=C/c1ccccc1
survivor count (dose: 25.0 mg/kg/injection, schedule: Q01DX009 (ip), vehicle: Klucel (hydroxypropylcellulose) (HPC)): 5 of 6
survivor count [6]: 0 of 6

CCCCN(CCCC)CC(O)c1cc(-c2ccc(Cl)cc2)nc2c(Cl)cc(Cl)cc12 (centres undefined)
survivor count (dose: 240.0 mg/kg/injection, schedule: Q01DX005 (ip), vehicle: Klucel + Tween-80): 6 of 6

COc1ccc2c(c1)CC[n+]1c-2ccc2c1CCC2=O
T/C (dose: 100.0 mg/kg/injection, schedule: Q01DX005 (ip), vehicle: saline with Tween-80): 126 % of control
T/C (dose: 200.0 mg/kg/injection, schedule: Q01DX005 (ip), vehicle: saline with Tween-80): 125 % of control

CCC1=CC2CC(c3cc4c(cc3OC)N(C)C3C(O)(C(=O)NC)C(OC(C)=O)C5(CC)C=CCN6CCC43C65)c3[nH]c4ccccc4c3CCN(C1)C2 (centres undefined)
T/C (dose: 1.0 mg/kg/injection, schedule: Q01DX001 (ip), vehicle: water): 127 % of control
survivor count (dose: 50.0 mg/kg/injection, schedule: Q01DX001 (ip), vehicle: other): 3 of 3

NC(=S)c1ccc(C2Nc3ccccc3N2)cc1
survivor count (dose: 200.0 mg/kg/injection, schedule: Q04DX002 (ip), vehicle: saline with Tween-80): 6 of 6
survivor count (dose: 400.0 mg/kg/injection, schedule: Q04DX002 (ip), vehicle: saline with Tween-80): 4 of 6
